From the supplement of paper PMC11546906
Counter-ions that a name gives are not always drawn. The list shows a part of the results. Single values are uncertain here, since repeats match poorly.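 Screen of FDA-approved drugs, each combined with colistin at one-eighth of its MIC, against a multidrug-resistant mcr-1-positive clinical E. coli isolate; growth read as OD600 after 24 h. Bacteria without drug were the growth control and plain broth the blank. A combination counted as active when OD600 fell below 0.2.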

These compounds were tested on Escherichia coli 42 (mcr-1-positive clinical isolate) (assay: OD600 after 24 h growth with compound plus colistin (absorbance units (OD600)); higher = more bacterial growth (less inhibition)). Details: first compound 25 µM; colistin concentration 0.5 ug/mL; incubation time 24 h; 37 °C.

OD600, inactive:
CC1(C)O[C@@H]2C[C@H]3[C@@H]4C[C@H](F)C5=CC(=O)C=C[C@]5(C)[C@@]4(F)[C@@H](O)C[C@]3(C)[C@]2(C(=O)CO)O1 [Fluocinolone (Acetonide)] + CCC(C)CCCC(=O)N[C@@H](CCN)C(=O)N[C@H](C(=O)N[C@@H](CCN)C(=O)N[C@H]1CCNC(=O)[C@H]([C@@H](C)O)NC(=O)[C@H](CCN)NC(=O)[C@H](CCN)NC(=O)[C@H](CC(C)C)NC(=O)[C@@H](CC(C)C)NC(=O)[C@H](CCN)NC1=O)[C@@H](C)O [colistin] 0.811, NC(=O)Cc1cccc(C(=O)c2ccccc2)c1N [Nepafenac] + CCC(C)CCCC(=O)N[C@@H](CCN)C(=O)N[C@H](C(=O)N[C@@H](CCN)C(=O)N[C@H]1CCNC(=O)[C@H]([C@@H](C)O)NC(=O)[C@H](CCN)NC(=O)[C@H](CCN)NC(=O)[C@H](CC(C)C)NC(=O)[C@@H](CC(C)C)NC(=O)[C@H](CCN)NC1=O)[C@@H](C)O [colistin] 1.05, CCOC(=O)N[C@@H]1CC[C@@H]2[C@@H](C1)C[C@H]1C(=O)O[C@H](C)[C@H]1[C@H]2/C=C/c1ccc(-c2cccc(F)c2)cn1 [Vorapaxar sulfate] + CCC(C)CCCC(=O)N[C@@H](CCN)C(=O)N[C@H](C(=O)N[C@@H](CCN)C(=O)N[C@H]1CCNC(=O)[C@H]([C@@H](C)O)NC(=O)[C@H](CCN)NC(=O)[C@H](CCN)NC(=O)[C@H](CC(C)C)NC(=O)[C@@H](CC(C)C)NC(=O)[C@H](CCN)NC1=O)[C@@H](C)O [colistin] 0.978
